{"sequences": {"note": "Sequences of proteins named here, by UniProt entry; tags and fusion partners are left off. A change or cut given only in a name is not applied to a line headed by its entry.", "UniProt O94782": "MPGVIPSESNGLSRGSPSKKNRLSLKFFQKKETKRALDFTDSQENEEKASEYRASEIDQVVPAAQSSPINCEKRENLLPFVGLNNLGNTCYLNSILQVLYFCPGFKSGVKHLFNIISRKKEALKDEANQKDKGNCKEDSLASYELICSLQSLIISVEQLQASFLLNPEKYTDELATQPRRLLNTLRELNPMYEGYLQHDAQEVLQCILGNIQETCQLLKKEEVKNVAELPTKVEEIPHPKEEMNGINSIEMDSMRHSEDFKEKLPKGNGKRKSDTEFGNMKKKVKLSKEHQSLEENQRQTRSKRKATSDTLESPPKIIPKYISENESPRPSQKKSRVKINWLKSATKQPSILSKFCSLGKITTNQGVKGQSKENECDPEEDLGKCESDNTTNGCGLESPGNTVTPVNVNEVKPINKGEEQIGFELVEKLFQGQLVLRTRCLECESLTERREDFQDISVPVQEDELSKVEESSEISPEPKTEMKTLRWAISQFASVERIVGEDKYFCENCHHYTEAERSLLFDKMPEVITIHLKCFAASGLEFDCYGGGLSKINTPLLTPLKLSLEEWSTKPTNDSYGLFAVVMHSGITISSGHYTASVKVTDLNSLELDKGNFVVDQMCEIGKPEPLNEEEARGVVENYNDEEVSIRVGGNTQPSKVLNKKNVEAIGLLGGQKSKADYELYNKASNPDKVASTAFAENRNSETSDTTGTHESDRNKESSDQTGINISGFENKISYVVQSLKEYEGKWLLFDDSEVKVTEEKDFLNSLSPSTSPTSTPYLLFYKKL"}, "source": "PubChem BioAssay AID743255", "about": "(National Center for Advancing Translational Sciences (NCATS), 2014)", "note": "In all, about 390,000 compounds went through this assay and about 910 (0.23%) were called active. Inconclusive results, whose numbers are uncertain, are shown with a selection of clear calls. The call rests on the fitted dose curve; in most records, active means well fitted inhibition curve with a large enough effect; inconclusive means small, poorly fitted or top-dose-only effect; inactive means no such curve, though single readings can be large or run the other way. Potencies beside an inconclusive call are fits to weak or partial responses and may not hold up. Potency means the concentration at half of the fitted maximal effect."}
{"biological_target": "Ubiquitin carboxyl-terminal hydrolase 1 (Homo sapiens) (UniProt O94782)", "test": "Inhibitors of USP1/UAF1: Primary Screen; further: nearly all actives have a fitted effect of over 60% in size", "details": "recombinant USP1/UAF1, Ub-Rhodamine cleavage fluorescence; series mostly up to 57.1 µM", "summary_of_the_method": "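1 nM enzyme complex + cpd, 15 min RT; start with Ub-Rho 150nM final; kinetic fluorescence ex 480/em 540, 6 reads q60 s. Buffer 50mM HEPES pH 7.8, 0.5mM EDTA, 0.1 mg/ml BSA, 1mM TCEP, 0.01% Tween-20.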"}
{"smiles": "Cn1nc(-c2ccc(Cl)cc2)c2cc(C(=O)N3CCN(C(=O)c4ccco4)CC3)sc21", "Potency": "inconclusive: 28.2 µM [inhibitor, partial curve]"}
{"smiles": "CC(C)(C)c1ccc(OCCCC(=O)Nc2ccc(S(N)(=O)=O)cc2)cc1", "Potency": "inconclusive: 12.6 µM [inhibitor, partial curve, poor fit]"}
{"smiles": "CC(C)C(=O)Nc1cccc(-c2csc(-c3ccccc3)n2)c1", "Potency": "inconclusive: 31.6 µM [inhibitor, partial curve]"}
{"smiles": "COc1ccc(S(=O)(=O)N(CC(=O)NN=C2CCN(C)CC2)c2cc(Cl)ccc2OC)cc1OC", "Potency": "inconclusive: 8.91 µM [inhibitor, partial curve, poor fit]"}
{"smiles": "O=C(N/N=C/c1ccncc1)c1cc2c(ccc3ccccc32)o1", "Potency": "inactive"}
{"smiles": "O=C(O)CCCn1cc(NC(=O)c2cc(F)c(F)cc2Cl)cn1", "Potency": "inactive"}
{"smiles": "CC(=O)Oc1cc2oc(=O)c3c(c2cc1Cl)CCC3", "Potency": "inconclusive: 0.562 µM [inhibitor, full curve, poor fit]"}
{"smiles": "CC(=O)NC1=C(N(C)C2CCS(=O)(=O)C2)C(=O)c2ccccc2C1=O", "note": "(configuration not stated)", "Potency": "inconclusive: 17.8 µM [inhibitor, partial curve]"}
{"smiles": "CCOC(=O)c1cccc(NC(=O)CCn2nc(C)c3c(C)n(-c4ccccc4)nc3c2=O)c1", "Potency": "inactive"}
{"smiles": "COCCCNC(=O)C1CCCN(S(=O)(=O)c2ccc3c(c2)oc(=O)n3C)C1", "note": "(configuration not stated)", "Potency": "inconclusive: 50.1 µM [inhibitor, partial curve, poor fit]"}
{"smiles": "CC1=Nc2cc(C(=O)NC3CCCC3)ccc2Sc2ccc(Br)cc21", "Potency": "inactive"}
{"smiles": "CC(=O)Nc1ccc(C=NNc2ccc([N+](=O)[O-])cc2S(=O)(=O)Nc2ccccc2C(=O)O)cc1", "Potency": "inactive"}
{"smiles": "Cc1ccc(CCNc2ncnc3onc(C)c23)cc1", "Potency": "inconclusive: 100 µM [inhibitor, partial curve]"}
{"smiles": "CC(C)(C)NC(=O)CN(Cc1ccco1)C(=O)CCC(=O)Nc1nccs1", "Potency": "inconclusive: 31.6 µM [inhibitor, single point]"}
{"smiles": "COc1ccc(CCNC(=O)C23CN(Cc4ccccc4)CC2C(c2cccc([N+](=O)[O-])c2)=NO3)cc1", "note": "(configuration not stated)", "Potency": "inactive"}
{"smiles": "CCCC1CC(C#N)N(N(C)C)C1=C(C#N)C#N", "note": "(configuration not stated)", "Potency": "inconclusive: 35.5 µM [inhibitor, single point]"}
{"smiles": "Nc1c(Br)cc(Br)c2c1[nH]c(=O)c1ccccc12", "Potency": "inconclusive: 0.398 µM [inhibitor, full curve, poor fit]"}
{"smiles": "COc1ccc(-c2nn(-c3ccccc3)cc2/C=C2/SC(=S)N(CCCC(=O)O)C2=O)c(C)c1", "Potency": "inconclusive: 31.6 µM [inhibitor, partial curve]"}
{"smiles": "CCOc1ccc2nc3sc(C(=O)N4CCOCC4)c(N)c3cc2c1", "Potency": "inactive"}
{"smiles": "CC(NC(=O)c1sc2ncccc2c1-n1cccc1)c1ccccc1", "note": "(configuration not stated)", "Potency": "inconclusive: 2.24 µM [inhibitor, partial curve]"}
{"smiles": "O=C(Nc1cccnc1)Nc1ccccc1Cl", "Potency": "inactive"}
{"smiles": "O=C(Nc1ccccc1-c1ccccc1)c1ccc(Cl)c([N+](=O)[O-])c1", "Potency": "inactive"}
{"smiles": "COC(=O)C1=C(C(=O)OC)[C@@H]2N(C)c3ccc(OC)cc3[C@@]23C[C@@H](C(=O)OC)N(C(=O)c2ccco2)C3=N1", "Potency": "inconclusive: 50.1 µM [inhibitor, partial curve, poor fit]"}
{"smiles": "CCN(CC)C(=O)C1CCCN(c2ncnc3onc(C)c23)C1", "note": "(configuration not stated)", "Potency": "inconclusive: 11.2 µM [inhibitor, partial curve, poor fit]"}
{"smiles": "COc1cccc(/C=N/NC(=O)c2[nH]nc3c2CCc2ccccc2-3)c1", "Potency": "inconclusive: 56.2 µM [inhibitor, partial curve, poor fit]"}
{"smiles": "Cc1ccc(C(=O)NCCc2csc(C)n2)cc1", "Potency": "inactive"}
{"smiles": "COc1ccc(NC(=O)N2CCc3c([nH]c4ccc(OC)cc34)C2c2ccc(OC)cc2)cc1", "note": "(configuration not stated)", "Potency": "inconclusive: 39.8 µM [inhibitor, single point]"}
{"smiles": "COC(=O)c1cc2oc3ccccc3c2n1Cc1c(F)cccc1Cl", "Potency": "inconclusive: 0.562 µM [inhibitor, full curve]"}
{"smiles": "O=c1c(Cl)c2oc3ccccc3nc-2c2ccccc12", "Potency": "inconclusive: 2 µM [inhibitor, full curve, poor fit]"}
{"smiles": "O=C(NCc1ccoc1)c1ccc(NC(=O)c2ccccc2Cl)cc1", "Potency": "inactive"}
{"smiles": "Cc1cccc(/C=C/C(=O)c2cc(Br)ccc(=O)c2O)c1", "Potency": "inconclusive: 35.5 µM [inhibitor, partial curve]"}
{"smiles": "COc1cccc2cc(C(=O)C3=C(O)C(=O)N(CCN(C)C)C3c3ccc(Cl)cc3)oc12", "note": "(configuration not stated)", "Potency": "inconclusive: 7.94 µM [inhibitor, partial curve, poor fit]"}
{"smiles": "CN1CCN(C2=C(Cl)C(=O)c3ccccc3C2=O)CC1", "Potency": "active: 3.55 µM"}
{"smiles": "COc1ccc(CCNCC(=O)N2C(C)CCCC2C)cc1OC", "note": "(configuration not stated)", "Potency": "inconclusive: 5.01 µM [inhibitor, single point]"}
{"smiles": "CCCCc1nn2c(=O)cc(COC(=O)c3cccc(NC(=O)c4cccs4)c3)nc2s1", "Potency": "inconclusive: 7.94 µM [inhibitor, single point]"}
{"smiles": "COc1cc(/C=N/NC(=O)c2ccncc2)ccc1O", "Potency": "inconclusive: 0.224 µM [inhibitor, full curve]"}
{"smiles": "C#CCNC(=O)C1=C[C@H](c2ccc(C(F)(F)F)cc2)[C@@H](CCCO)[C@H](OCC)O1", "Potency": "inconclusive: 112 µM [inhibitor, partial curve, poor fit]"}
{"smiles": "CC1CC(C)CN(C(=O)CCNC(=O)Cn2cnc3ccccc3c2=O)C1", "note": "(configuration not stated)", "Potency": "inconclusive: 6.31 µM [inhibitor, full curve, poor fit]"}
{"smiles": "Cc1cc([N+](=O)[O-])ccc1NCc1ccccc1", "Potency": "inactive"}
{"smiles": "CCOc1ccc(-c2cccc(NC(=O)c3ccco3)c2)nn1", "Potency": "inconclusive: 39.8 µM [inhibitor, partial curve, poor fit]"}
{"smiles": "CCOc1cc(/C=N\\NC(=O)OC(C)(C)C)ccc1OC(=O)c1ccco1", "Potency": "inconclusive: 39.8 µM [inhibitor, partial curve, poor fit]"}
{"smiles": "O=C1Nc2c(Cl)cc(Cl)cc2C1=O", "Potency": "active: 28.2 µM"}
{"smiles": "Cc1cc(C)n2c(Nc3ccc4c(c3)OCCO4)c(-c3ccccc3)nc2n1", "Potency": "inconclusive: 20 µM [inhibitor, partial curve]"}
{"smiles": "CCS(=O)(=O)N1CC(=O)N(c2cc(C)cc(C)c2)C(C)(C(=O)NC2CCCCC2)C1", "note": "(configuration not stated)", "Potency": "inactive"}
{"smiles": "Cc1cc(F)ccc1NC(=O)CCS(=O)(=O)c1cc2c3c(c1)CCN3C(=O)CC2", "Potency": "inconclusive: 14.1 µM [inhibitor, partial curve]"}
{"smiles": "Cc1ccccc1OCC(=O)NCCCNC(=O)c1ccccn1", "Potency": "inconclusive: 50.1 µM [inhibitor, partial curve, poor fit]"}
{"smiles": "CN(C)CCC(c1ccc(Br)cc1)c1ccccn1", "note": "(configuration not stated)", "Potency": "inconclusive: 17.8 µM [inhibitor, single point]"}
{"smiles": "CN1C(=O)Cc2cc(S(=O)(=O)CCC(=O)Nc3ccc(Cl)cc3)ccc21", "Potency": "inactive"}
{"smiles": "COc1ccccc1C(=O)NCC(=O)N/N=C/c1ccc2c(c1)OCO2", "Potency": "inconclusive: 50.1 µM [inhibitor, partial curve, poor fit]"}
{"smiles": "O=c1c2sc3ccccc3c2n(Cc2cccc(C(F)(F)F)c2)c(=O)n1-c1ccccc1", "Potency": "inactive"}
{"smiles": "CCOC(=O)N1CCC(N(C(=O)Nc2ccc(Cl)c(Cl)c2)C(C)CC)CC1", "note": "(configuration not stated)", "Potency": "inconclusive: 3.98 µM [inhibitor, partial curve]"}
{"smiles": "CCS(=O)(=O)N1CCc2cc(C(=O)NC(C)c3ccccc3)ccc21", "note": "(configuration not stated)", "Potency": "inactive"}
{"smiles": "COc1ccc(S(=O)(=O)N2CCC(N3CCCCC3)CC2)cc1", "Potency": "inactive"}
{"smiles": "CCOC(=O)c1c(NC(=O)COc2ccccc2)sc2c1CC(C)(C)NC2(C)C", "Potency": "inactive"}
{"smiles": "FC(F)(F)c1cccc(N2CCN(c3nc4ccccc4n4cnnc34)CC2)c1", "Potency": "inconclusive: 50.1 µM [inhibitor, partial curve, poor fit]"}
{"smiles": "COc1ccc(-n2c(SC)nc3sc4c(c3c2=O)CCN(C(C)=O)C4)cc1", "Potency": "inactive"}
{"smiles": "O=C(O)c1ccccc1NS(=O)(=O)c1ccc(NNC(=S)Nc2ccc(OC(F)F)cc2)c([N+](=O)[O-])c1", "Potency": "inconclusive: 35.5 µM [inhibitor, single point]"}
{"smiles": "O=C1c2ccccc2/C(=C\\C#Cc2ccccn2)N1c1ccccc1", "Potency": "inconclusive: 28.2 µM [inhibitor, single point]"}
{"smiles": "c1ccc(-n2c3ccccc3c3ccccc32)cc1", "Potency": "inconclusive: 39.8 µM [inhibitor, partial curve]"}
{"smiles": "COc1cc(Cl)c(C)cc1NC(=O)C1CCCN(c2ncnc3onc(-c4ccc(F)cc4)c23)C1", "note": "(configuration not stated)", "Potency": "inconclusive: 8.91 µM [inhibitor, partial curve, poor fit]"}
{"smiles": "CCc1ccccc1N(CC)C(=O)C(=O)Nc1ccc2nc3n(c(=O)c2c1)CCCCC3", "Potency": "inconclusive: 0.891 µM [inhibitor, full curve]"}
{"smiles": "Cc1ccccc1-c1nnc(SCC#N)o1", "Potency": "inconclusive: 1.41 µM [inhibitor, full curve]"}
{"smiles": "CN1CCN(C(c2ccc(Br)cc2)c2cc(Cl)c3cccnc3c2O)CC1", "note": "(configuration not stated)", "Potency": "inconclusive: 39.8 µM [inhibitor, partial curve]"}
{"smiles": "CN(C)c1ccc(/C=C/c2nc3ccccc3c(=O)n2-c2ccc(C(=O)O)cc2)cc1", "Potency": "inconclusive: 35.5 µM [inhibitor, single point]"}
{"smiles": "COc1ccc(N2C(=S)NC3N2C(=S)NC3(C)c2ccccc2)cc1", "note": "(configuration not stated)", "Potency": "inconclusive: 100 µM [inhibitor, partial curve, poor fit]"}
{"smiles": "COc1ccc(S(=O)(=O)c2cc3cc(C(C)(C)C)cc(O)c3oc2=O)cc1", "Potency": "inactive"}
{"smiles": "O=C(C[C@H]1C(=O)N(Cc2cccnc2)C[C@@H]1Cc1ccccc1)Nc1ccc(Br)cc1", "Potency": "inconclusive: 6.31 µM [inhibitor, full curve]"}
